Measurements reported in PubChem BioAssay AID1508588 (Peter MacCallum Cancer Centre, 2020)

Assay: 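Knock-downs boosting vemurafenib effects on melanoma cell growth or lactate release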 (primary screen)
System: human WM266.4 melanoma cells (BRAF V600 mutant)
Knock-down reagent: siRNA pool against human genes, 40 nM
Time to read-out: 96 h from transfection to read-out
Treatment: vemurafenib 300 nM (about IC25), added 48 h after transfection, for 48 h; comparison arm got DMSO vehicle only
Measured: 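Cell gain (DAPI nuclei at end minus before drug, mean of two replicates) and medium lactate by absorbance per cell, both as ratio to non-targeting siRNA, also grouped into fold-change classes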
Scale: cell gain with vemurafenib: higher = more cell gain than with non-targeting siRNA; lactate per cell with vemurafenib: higher = more lactate made per cell
Rule for the call: 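Enhancement is called by pairing each knock-down's vehicle-arm and drug-arm fold-change classes for viability or glycolysis; which class combinations qualify is not given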
Calls: active = enhances vemurafenib effect; inactive = no enhancement seen
The deposit covers about 18,000 reagents; this is a random part of them. In the full data, 790 (4.4%) were called active. 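Calls rest on a combination of fold-change classes in drug and vehicle arms, not all shown here.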 Some reagents were tested in more than one well and are listed for each. Reagent sequences are not shown.

For NDUFA6 (GeneID 4700), the entry reads cell gain with vemurafenib 0.84; lactate per cell with vemurafenib 0.98; inactive. With knock-down of ITGB5 (GeneID 3693) the results were cell gain with vemurafenib 0.56; lactate per cell with vemurafenib 0.98; inactive. Knock-down of ARHGAP12 (GeneID 94134) gave: cell gain with vemurafenib 0.65; lactate per cell with vemurafenib 1.7; inactive. Against PEPD (GeneID 5184), the values are cell gain with vemurafenib 0.42; lactate per cell with vemurafenib 1.01; inactive. RTKN (GeneID 6242) scored cell gain with vemurafenib 0.18; lactate per cell with vemurafenib 1.66; inactive. Silencing of GIGYF1 (GeneID 64599) gave: cell gain with vemurafenib 0.79; lactate per cell with vemurafenib 0.73; inactive.

OVOL2 (GeneID 58495) showed cell gain with vemurafenib 0.68; lactate per cell with vemurafenib 0.66; inactive. TNC (GeneID 3371) showed cell gain with vemurafenib -0.1; lactate per cell with vemurafenib 2.02; inactive. Depletion of MYB (GeneID 4602) came out at: cell gain with vemurafenib 0.73; lactate per cell with vemurafenib 0.97; inactive. Against RGS21 (GeneID 431704) the deposit lists cell gain with vemurafenib 0.93; lactate per cell with vemurafenib 0.77; inactive. For SPOUT1 (GeneID 51490) the deposit lists cell gain with vemurafenib 0.33; lactate per cell with vemurafenib 1.03; inactive. Against QARS1 (GeneID 5859), the values are cell gain with vemurafenib 1.34; lactate per cell with vemurafenib 0.12; inactive.

TMEM41A (GeneID 90407) scored cell gain with vemurafenib 0.64; lactate per cell with vemurafenib 0.89; inactive. After knock-down of SSX6P (GeneID 280657) the results were cell gain with vemurafenib 0.64; lactate per cell with vemurafenib 1.19; inactive. TMEM177 (GeneID 80775) gave cell gain with vemurafenib 0.31; lactate per cell with vemurafenib 0.77; inactive. Depletion of TSSK6 (GeneID 83983) gave: cell gain with vemurafenib 0.54; lactate per cell with vemurafenib 0.66; inactive. TSSK6 (GeneID 83983) showed cell gain with vemurafenib 0.3; lactate per cell with vemurafenib 1.92; inactive. For PAMR1 (GeneID 25891) the deposit lists cell gain with vemurafenib 0.48; lactate per cell with vemurafenib 1.46; inactive.

Against KIR3DL3 (GeneID 115653) the deposit lists cell gain with vemurafenib 1.17; lactate per cell with vemurafenib 0.44; inactive. With knock-down of C5orf24 (GeneID 134553), the record shows cell gain with vemurafenib 0.75; lactate per cell with vemurafenib 0.74; inactive. Depletion of YPEL4 (GeneID 219539) came out at: cell gain with vemurafenib 0.66; lactate per cell with vemurafenib 0.94; inactive. For VASN (GeneID 114990) the deposit lists cell gain with vemurafenib 0.59; lactate per cell with vemurafenib 0.89; inactive. For KRTAP4-11 (GeneID 653240), the entry reads cell gain with vemurafenib 0.26; lactate per cell with vemurafenib 0.94; inactive. Silencing of NKTR (GeneID 4820) came out at: cell gain with vemurafenib 1.05; lactate per cell with vemurafenib 0.49; inactive.

Silencing of FOXRED2 (GeneID 80020) came out at: cell gain with vemurafenib 0.74; lactate per cell with vemurafenib 0.26; inactive. Against HACD3 (GeneID 51495), the values are cell gain with vemurafenib 0.4; lactate per cell with vemurafenib 0.88; inactive. RPL34 (GeneID 6164) showed cell gain with vemurafenib -0.09; lactate per cell with vemurafenib 1.44; inactive.

Targets above whose gene name starts with P or p:
PEPD (GeneID 5184) | cell gain with vemurafenib = 0.42; lactate per cell with vemurafenib = 1.01; Call = inactive
PAMR1 (GeneID 25891) | cell gain with vemurafenib = 0.48; lactate per cell with vemurafenib = 1.46; Call = inactive
